In US8809010B2 (Probiodrug AG, priority 2003, dated 2014):

Key:
Details in all cases: whole synthesis, scale of the general procedure 0.5 mmol, 25 μmol for longer peptides
[1] = general procedure: Fmoc solid-phase peptide synthesis; Rink amide MBHA; HMBA-AM; TBTU/base (DIPEA or NMM); HATU/DIPEA for difficult couplings
[2] = general procedure: Fmoc solid-phase peptide synthesis; Rink amide MBHA; 2-chlorotrityl resin; HMBA-AM; TBTU/base (DIPEA or NMM); HATU/DIPEA for difficult couplings
[3] = general procedure: Fmoc solid-phase peptide synthesis; Rink amide MBHA; TBTU/base (DIPEA or NMM); HATU/DIPEA for difficult couplings

## E(NHNH2)SPTA-NH2
[1]
  crude yield: 76%

## H-Gln(NMe)-Phe-Lys-Ala-Glu-NH2 (FKAE; N-terminal N-methyl Gln; C-terminal amide; printed: Phe-Lys-Ala-Glu-)
[2]
  crude yield: 78%

## H-Gln-Lys(Gln)-Arg-Leu-Ala-NH2 (QKRLA)
[3]
  crude yield: 95%

Ends that are not written are not given here. * marks the point of attachment. NHNH2 = NN*
